In article PMC11448930:
Results are given in words; binding and its absence hold for the method and conditions named.

Molecular target: Plasmodium vivax N-myristoyltransferase (Plasmodium vivax Sal-1 (strain Salvador I))
Test: SEC; Superdex 75 26/60, 20 mM HEPES pH 7.0, 300 mM NaCl, 5% glycerol, 1 mM TCEP; preparative step after IMAC; both purified

binding: no binding
B1: Plasmodium vivax N-myristoyltransferase (enzyme)
chain: DYKFWYTQPVPKINDEFNESVNEPFISDNKVEDVRKDEYKLPPGYSWYVCDVKDEKDRSEIYTLLTDNYVEDDDNIFRFNYSAEFLLWALTSPNYLKTWHIGVKYDASNKLIGFISAIPTDICIHKRTIKMAEVNFLCVHKTLRSKRLAPVLIKEITRRINLENIWQAIYTAGVYLPKPVSDARYYHRSINVKKLIEIGFSSLNSRLTMSRAIKLYRVEDTLNIKNMRLMKKKDVEGVHKLLGSYLEQFNLYAVFTKEEIAHWFLPIENVIYTYVNEENGKIKDMISFYSLPSQILGNDKYSTLNAAYSFYNVTTTATFKQLMQDAILLAKRNNFDVFNALEVMQNKSVFEDLKFGEGDGSLKYYLYNWKCASFAPAHVGIVLL
